Laboratory results: patent US9169519B2, “SUMO as a marker of cancer development and target for cancer therapy” (Duke University, priority 2010, dated 2015)
At least one compound was matched to its structure with a doubt left.

Test system: F98 glioblastoma cells
Test: TMZ induced cell damage and cell death by LDH release
Type: cell-based, rat
Conditions: 0-1000 μM TMZ for 72 hr (FIG. 7)

How did the “cell death (release of LDH, percent of total LDH activity)” value turn out when `Cn1nnc2c(C(N)=O)ncn2c1=O` [TMZ, temozolomide] was run?
Its value is “induced cell death in a concentration-dependent manner”.
